Some results were stated once for a whole list of compounds, not compound by compound.
What was measured:
plasma Aβ1-42 = assay: Plasma Aβ1-42 concentration in mice by ELISA; type: in vivo, mouse; settings: WT mice, CCl4 0.5 g/kg or hPEPD 4 mg/kg i.p., 24 h; range printed jointly for mSRC and mAβ1-42
plasma mSRC = assay: Plasma SRC concentration in mice by ELISA; type: in vivo, mouse; settings: WT mice, CCl4 0.5 g/kg or hPEPD 4 mg/kg i.p., 24 h; range printed jointly for mSRC and mAβ1-42
Procedure: Animal studies. All animal studies were performed in accordance with protocols approved by the Institutional Animal Care and Use Committee at Roswell Park Cancer Institute. Male mice at 7-8 weeks of age were used, including wild type (WT) mice (C57BL/6), and mice deficient in FXII (C57BL/6-FXII^−/−) or FVII (C57BL/6-FVII^tTA/tTA). WT C57BL/6 mice were purchased from Taconic. C57BL/6-FXII^−/− mice and C57BL/6-FVII^tTA/tTA mice were bred in our own facility and genotyped. The breeders were kindly provided by Dr. Francis J. Castellino at University of Notre Dame. […] CCl4 was dissolved in corn oil, whereas all other substances were dissolved in PBS. The vehicle or the test substance was given to mice in 0.1 ml volume per 20 g body weight. Blood was collected from the mice at specific times by cardiac puncture at the time of sacrifice by carbon dioxide, and heart, liver and kidney were also collected from some of the mice. […]
Measurement of plasma levels of PEPD, SRC, Aβ1-42 and FI. […] Upon adequate color development, 100 μl of stop solution (Cell Signaling, 7002) was added to each well, and absorbance at 450 nm was promptly recorded by a microtiter plate reader. Plasma FI concentration was determined using an assay kit (400-374-130050) from GenWay Biotech, following the manufacturer's instruction.

**Q.** With ClC(Cl)(Cl)Cl [CCl4, Carbon tetrachloride] as the compound, how does the “average plasma level of mAβ1-42, decrease” value (plasma Aβ1-42) read?
**A.** 41.2-56.1%

**Q.** And the “average plasma level of mSRC, decrease” value (plasma mSRC)?
**A.** 41.2-56.1%

From US20180188270A1, “DIAGNOSTIC TEST FOR ALZHEIMER'S DISEASE BASED ON IDENTIFICATION OF A PROTEOLYTIC PATHWAY” (Health Research, Inc., priority 2015, published 2018)
